Data as given in the supplement of paper PMC8728848.
This is one part of the list.

What was measured:
Test in all cases: glycan array binding signal (z-score within array); higher = stronger binding
Conditions in all cases: glycan notation: IUPAC condensed, linker removed
[1] = molecular target: Gal(b1-4)GlcNAc(b1-3)Gal(b1-4)GlcNAc(b1-2)[Gal(b1-4)GlcNAc(b1-3)Gal(b1-4)GlcNAc(b1-6)]Man(a1-6)[Gal(b1-4)GlcNAc(b1-3)Gal(b1-4)GlcNAc(b1-2)Man(a1-3)]Man(b1-4)GlcNAc(b1-4)GlcNAc
Outline: (§1)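 Glycan array data came from 3228 arrays in the Consortium for Functional Glycomics database, and only arrays with an available protein sequence were kept. Glycan names were put into IUPAC-condensed notation, and columns mapping to the same glycan were averaged. The binding signal is a within-array Z-score, averaged across arrays of one protein sequence run at different concentrations or buffers and across linkers. A negative Z-score can be read as non-binding.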

[2] = molecular target: Gal(b1-4)GlcNAc(b1-3)Gal(b1-4)GlcNAc(b1-2)[Gal(b1-4)GlcNAc(b1-3)Gal(b1-4)GlcNAc(b1-6)]Man(a1-6)[Gal(b1-4)GlcNAc(b1-3)Gal(b1-4)GlcNAc(b1-2)Man(a1-3)]Man(b1-4)GlcNAc(b1-4)[Fuc(a1-6)]GlcNAc
Outline: as §1

[3] = molecular target: Gal(b1-4)GlcNAc(b1-3)Gal(b1-4)GlcNAc(b1-3)Gal(b1-4)GlcNAc
Outline: as §1

[4] = molecular target: Gal(b1-4)GlcNAc(b1-3)Gal(b1-4)GlcNAc(b1-3)Gal(b1-4)GlcNAc(b1-2)Man(a1-3)[Gal(b1-4)GlcNAc(b1-3)Gal(b1-4)GlcNAc(b1-3)Gal(b1-4)GlcNAc(b1-2)Man(a1-6)]Man(b1-4)GlcNAc(b1-4)GlcNAc
Outline: as §1

[5] = molecular target: Gal(b1-4)GlcNAc(b1-3)Gal(b1-4)GlcNAc(b1-3)Gal(b1-4)GlcNAc(b1-2)Man(a1-3)[Gal(b1-4)GlcNAc(b1-3)Gal(b1-4)GlcNAc(b1-3)Gal(b1-4)GlcNAc(b1-2)Man(a1-6)]Man(b1-4)GlcNAc(b1-4)[Fuc(a1-6)]GlcNAc
Outline: as §1

[6] = molecular target: Gal(b1-4)GlcNAc(b1-3)Gal(b1-4)GlcNAc(b1-3)Gal(b1-4)GlcNAc(b1-2)[Gal(b1-4)GlcNAc(b1-3)Gal(b1-4)GlcNAc(b1-3)Gal(b1-4)GlcNAc(b1-6)]Man(a1-6)[Gal(b1-4)GlcNAc(b1-3)Gal(b1-4)GlcNAc(b1-3)Gal(b1-4)GlcNAc(b1-2)Man(a1-3)]Man(b1-4)GlcNAc(b1-4)[Fuc(a1-6)]GlcNAc
Outline: as §1

[7] = molecular target: Gal(b1-4)GlcNAc(b1-3)Gal(b1-4)GlcNAc(b1-3)Gal(b1-4)GlcNAc(b1-3)Gal(b1-4)GlcNAc(b1-2)Man(a1-3)[Gal(b1-4)GlcNAc(b1-3)Gal(b1-4)GlcNAc(b1-3)Gal(b1-4)GlcNAc(b1-3)Gal(b1-4)GlcNAc(b1-2)Man(a1-6)]Man(b1-4)GlcNAc(b1-4)GlcNAc
Outline: as §1

[8] = molecular target: Gal(b1-4)GlcNAc(b1-3)Gal(b1-4)GlcNAc(b1-3)Gal(b1-4)GlcNAc(b1-3)Gal(b1-4)GlcNAc(b1-2)Man(a1-3)[Gal(b1-4)GlcNAc(b1-3)Gal(b1-4)GlcNAc(b1-3)Gal(b1-4)GlcNAc(b1-3)Gal(b1-4)GlcNAc(b1-2)Man(a1-6)]Man(b1-4)GlcNAc(b1-4)[Fuc(a1-6)]GlcNAc
Outline: as §1

[9] = molecular target: Gal(b1-4)GlcNAc(b1-3)Gal(b1-4)GlcNAc(b1-3)Gal(b1-4)GlcNAc(b1-3)Gal(b1-4)GlcNAc(b1-2)[Gal(b1-4)GlcNAc(b1-3)Gal(b1-4)GlcNAc(b1-3)Gal(b1-4)GlcNAc(b1-3)Gal(b1-4)GlcNAc(b1-6)]Man(a1-6)[Gal(b1-4)GlcNAc(b1-3)Gal(b1-4)GlcNAc(b1-3)Gal(b1-4)GlcNAc(b1-3)Gal(b1-4)GlcNAc(b1-2)Man(a1-3)]Man(b1-4)GlcNAc(b1-4)[Fuc(a1-6)]GlcNAc
Outline: as §1

[10] = molecular target: Gal(b1-4)GlcNAc(b1-3)Gal(b1-4)GlcNAc(b1-3)Gal(b1-4)GlcNAc(b1-3)Gal(b1-4)GlcNAc(b1-3)Gal(b1-4)GlcNAc(b1-2)Man(a1-3)[Gal(b1-4)GlcNAc(b1-3)Gal(b1-4)GlcNAc(b1-3)Gal(b1-4)GlcNAc(b1-3)Gal(b1-4)GlcNAc(b1-3)Gal(b1-4)GlcNAc(b1-2)Man(a1-6)]Man(b1-4)GlcNAc(b1-4)GlcNAc
Outline: as §1

[11] = molecular target: Gal(b1-4)GlcNAc(b1-3)Gal(b1-4)GlcNAc(b1-3)Gal(b1-4)GlcNAc(b1-3)Gal(b1-4)GlcNAc(b1-3)Gal(b1-4)GlcNAc(b1-2)Man(a1-3)[Gal(b1-4)GlcNAc(b1-3)Gal(b1-4)GlcNAc(b1-3)Gal(b1-4)GlcNAc(b1-3)Gal(b1-4)GlcNAc(b1-3)Gal(b1-4)GlcNAc(b1-2)Man(a1-6)]Man(b1-4)GlcNAc(b1-4)[Fuc(a1-6)]GlcNAc
Outline: as §1

[12] = molecular target: Gal(b1-4)GlcNAc(b1-3)Gal(b1-4)GlcNAc(b1-3)Gal(b1-4)GlcNAc(b1-3)Gal(b1-4)GlcNAc(b1-3)Gal(b1-4)GlcNAc(b1-2)[Gal(b1-4)GlcNAc(b1-3)Gal(b1-4)GlcNAc(b1-3)Gal(b1-4)GlcNAc(b1-3)Gal(b1-4)GlcNAc(b1-3)Gal(b1-4)GlcNAc(b1-6)]Man(a1-6)[Gal(b1-4)GlcNAc(b1-3)Gal(b1-4)GlcNAc(b1-3)Gal(b1-4)GlcNAc(b1-3)Gal(b1-4)GlcNAc(b1-3)Gal(b1-4)GlcNAc(b1-2)Man(a1-3)]Man(b1-4)GlcNAc(b1-4)[Fuc(a1-6)]GlcNAc
Outline: as §1

[13] = molecular target: Gal(b1-4)GlcNAc(b1-3)Gal(b1-4)GlcNAc(b1-3)Gal(b1-4)GlcNAc(b1-3)Gal(b1-4)GlcNAc(b1-3)Gal(b1-4)GlcNAc(b1-3)Gal(b1-4)GlcNAc(b1-2)Man(a1-3)[Gal(b1-4)GlcNAc(b1-3)Gal(b1-4)GlcNAc(b1-3)Gal(b1-4)GlcNAc(b1-3)Gal(b1-4)GlcNAc(b1-3)Gal(b1-4)GlcNAc(b1-3)Gal(b1-4)GlcNAc(b1-2)Man(a1-6)]Man(b1-4)GlcNAc(b1-4)GlcNAc
Outline: as §1

[14] = molecular target: Gal(b1-4)GlcNAc(b1-3)Gal(b1-4)GlcNAc(b1-3)GalNAc
Outline: as §1

[15] = molecular target: Gal(b1-4)GlcNAc(b1-3)Gal(b1-4)GlcNAc(b1-3)[Gal(b1-4)GlcNAc(b1-3)Gal(b1-4)GlcNAc(b1-6)]GalNAc
Outline: as §1

[16] = molecular target: Gal(b1-4)GlcNAc(b1-3)Gal(b1-4)GlcNAc(b1-6)[Gal(b1-3)]GalNAc
Outline: as §1

[17] = molecular target: Gal(b1-4)GlcNAc(b1-3)Gal(b1-4)[Fuc(a1-3)]GlcNAc(b1-3)Gal(b1-4)[Fuc(a1-3)]GlcNAc
Outline: as §1

[18] = molecular target: Gal(b1-4)GlcNAc(b1-3)GalNAc
Outline: as §1

[19] = molecular target: Gal(b1-4)GlcNAc(b1-3)[Fuc(a1-3)GlcNAc(b1-6)]Gal(b1-4)Glc
Outline: as §1

[20] = molecular target: Gal(b1-4)GlcNAc(b1-3)[Gal(b1-4)GlcNAc(b1-6)]Gal(b1-4)GlcNAc
Outline: as §1

[21] = molecular target: Gal(b1-4)GlcNAc(b1-3)[GlcNAc(b1-6)]Gal(b1-4)GlcNAc
Outline: as §1

[22] = molecular target: Gal(b1-4)GlcNAc(b1-6)Gal(b1-4)GlcNAc
Outline: as §1

B1: PhypaEULS3 (Physcomitrella patens) (protein)
chain: MLPVRLHCKADPNFNLAAVPGQGPVMVPFSPNDDFQVWYKDVTMSTRVKDETGSSAFSLINKATGQALRHAPEDLAQCLLADYDSNALDQTVLWTMSEDMGQGYCCIRLASQITRNLDVFRGDKKSGGVKEGSPVITFAWKKQDNQIWKMITAILEQKLISEEDLNSAVDHHHHHH
glycan array binding signal (z-score) [1]: 1.48 | glycan array binding signal (z-score) [2]: -1.26 | glycan array binding signal (z-score) [3]: -1.46 | glycan array binding signal (z-score) [4]: 0.233 | glycan array binding signal (z-score) [5]: -0.462 | glycan array binding signal (z-score) [6]: -1.91 | glycan array binding signal (z-score) [7]: -1.57 | glycan array binding signal (z-score) [8]: -0.557 | glycan array binding signal (z-score) [9]: -1.45 | glycan array binding signal (z-score) [10]: -0.151 | glycan array binding signal (z-score) [11]: -0.139 | glycan array binding signal (z-score) [12]: -1.24 | glycan array binding signal (z-score) [13]: -1.31 | glycan array binding signal (z-score) [14]: 2 | glycan array binding signal (z-score) [15]: 1.52 | glycan array binding signal (z-score) [16]: 1.3 | glycan array binding signal (z-score) [17]: -1.04 | glycan array binding signal (z-score) [18]: -1.07 | glycan array binding signal (z-score) [19]: 1.35 | glycan array binding signal (z-score) [20]: -0.319 | glycan array binding signal (z-score) [21]: 0.751 | glycan array binding signal (z-score) [22]: -0.462
